Data from publication doi:10.1101/2023.03.06.531406.
Results are given in words; binding and its absence hold for the method and conditions named. Binding seen in cells or lysates may run through a third protein. Some entries that bind do so weakly or less than the wild type. Where a sequence is shown, tags or fusion partners need not be part of it.

By UniProt entry, the sequences of proteins in these tests, tags left out. Residues count along the entry.
UniProt P18572, residues 217-389: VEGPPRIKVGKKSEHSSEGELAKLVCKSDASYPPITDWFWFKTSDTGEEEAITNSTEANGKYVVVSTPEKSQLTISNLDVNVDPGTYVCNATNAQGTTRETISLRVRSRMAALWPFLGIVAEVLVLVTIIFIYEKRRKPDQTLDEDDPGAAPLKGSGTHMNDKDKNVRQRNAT

Target: T1, Flag-tagged calpain 4 (full length) (UniProt O88456)
T1 sequence: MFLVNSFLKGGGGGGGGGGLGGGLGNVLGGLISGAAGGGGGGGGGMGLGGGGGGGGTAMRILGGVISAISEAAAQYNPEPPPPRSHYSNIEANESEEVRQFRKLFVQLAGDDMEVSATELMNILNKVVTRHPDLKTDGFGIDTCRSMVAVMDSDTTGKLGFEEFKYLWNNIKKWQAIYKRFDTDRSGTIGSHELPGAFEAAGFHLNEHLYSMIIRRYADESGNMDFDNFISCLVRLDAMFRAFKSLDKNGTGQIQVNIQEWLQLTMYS
Assay: co-IP

With “HA-tagged basigin lacking the N-terminal 100 amino acids (from UniProt P18572-2 101-273) (domain or fragment)” the binding was “binds”.
